## Primary screen of a compound library

Data taken from ChEMBL document CHEMBL3988442, “University of Dundee, Small-Polar-MMV Screening Library” (2021).

Results are given as percent effect.
The record does not define 0% and 100%; most values in the screen are far below 50% and negative numbers occur (in some assays of this library far below -100).
The compounds are a random part of those screened.
A dash means the value is not listed here; it may have been measured.

Mtb growth Cornell: 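Whole-cell assay for inhibitors of Mycobacterium tuberculosis growth, labelled Cornell in the record; the read-out is not stated. The concentration is filed as 10 mM, unlikely as a test dose, so the dose is not known. The record gives no direction; compounds strong in two other growth screens of this library score well above the rest, so higher reads as stronger inhibition. Of about 53,000 compounds tested this way, about 900 (1.7%) reached 50% or more in at least one test.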
Mtb heat-shock: 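Assay on Mycobacterium tuberculosis, filed only as a heat shock assay from Cornell; the read-out is not stated. The concentration is filed as 10 mM, unlikely as a test dose, so the dose is not known. Direction is inferred from retests: higher values go with stronger inhibition. Size under these conditions: about 69,000 compounds, about 930 of them at 50% or above in at least one test.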

| compound | Mtb growth Cornell | Mtb heat-shock |
|---|---|---|
| `CNC(=O)COc1nc(C(C)(C)C)no1` | 7.64% | 2.96% |
| `CCc1noc(CN(CCS(C)(=O)=O)C(C)(C)C)n1` | -19.43% | 3.035% |
| `COCCN1CCCC(c2cncc(Oc3ccccc3OC)n2)C1` (centres unmarked) | 6.598% | 15.88% |
| `CN1CCN(Cc2cccnc2)C(=O)C12CCN(CC1CCOC1)CC2.O=C(O)C(F)(F)F.O=C(O)C(F)(F)F.O=C(O)C(F)(F)F` (centres unmarked) | -14.5% | 14.59% |
| `COc1cccc(C2=CCN(CCN3CCOC3=O)CC2)c1` | - | -3.596% |
| `Cc1ccsc1CNC(=O)NC(C)c1ccc2c(c1)CCC(=O)N2` (centres unmarked) | - | 11.8% |
| `Cn1cc(CN2CCC3(C2)CN(Cc2ccsc2)C3)cn1.O=C(O)C(F)(F)F.O=C(O)C(F)(F)F` | -9.892% | -25.94% |
| `CCc1cc(C(=O)N2CCCC(c3[nH]ncc3S(C)(=O)=O)C2)no1` (centres unmarked) | - | -4.877% |
| `[H][C@]12CC(COCc3ccccn3)C[C@]1([H])N(C(=O)c1ccc[nH]1)CCO2` (some centres unmarked) | 10.27% | -18.05% |
| `Cc1cnn(CC(=O)N2CCCN(c3ncccc3C#N)CC2)c1` | -103% | -4.974% |
| `Cn1nc2c(cc1=O)CN(Cc1nc(C(C)(C)C)no1)CC2` | - | 8.077% |
| `CCCc1cc(C(=O)Nc2nc(SC)ns2)[nH]n1` | 11.5% | -22.43% |
| `COc1ccc(COCC(O)CNC(=O)c2cc(C)cc(C)c2)cc1` (centres unmarked) | - | -2.598% |
| `CN(CCc1ccccn1)C(=O)CCC1CCCN(c2cnccn2)C1` (centres unmarked) | - | -28.52% |
| `CC(C)Cc1noc(CN2CCCN(C(=O)c3ccccc3Cl)CC2)n1` | 7.179% | -17.11% |
| `O=C(O)C(F)(F)F.[H][C@@]12CN(C(=O)c3ccco3)C[C@]1([H])OCCN2c1ncccn1` | -75.74% | -4.269% |
| `CC(C)CC(O)C1CCN(C(=O)c2coc(CN3CCOCC3)c2)CC1` (centres unmarked) | -6.775% | -22.25% |
| `O=C(O)C(F)(F)F.O=C(O)C(F)(F)F.[H][C@@]12CN(CC)C[C@]1([H])[C@H](OC)CCN2S(=O)(=O)c1cccnc1` | - | -29.35% |
| `COc1ccc(NC(=O)CNc2ccc(Br)cc2F)cc1` | 107.2% | 23.5% |
| `CC1(C)CN(CC(F)(F)F)CCN1CC(=O)NC1CC1` | 19.67% | -8.049% |
| `CC(=O)N1CCN(C[C@H]2CC[C@@H](Cc3ccc4c(c3)OCO4)O2)CC1` | 10.03% | 10.92% |
| `CCCN(CCC)C(=O)CN(C)C1CCc2ccccc21` (centres unmarked) | - | -22.67% |
| `Cc1cccc(NC2CCN(C(=O)Nc3cc(F)cc(F)c3)CC2)n1` | -33.08% | -13.01% |
| `CC(C)C(=O)Nc1ncn(Cc2cccc(Br)c2)n1` | 1.284% | -40.78% |
| `[H][C@@]12C[C@@H](OCc3cccnc3)CN1CCN(C(=O)c1cscn1)C2` | - | -11.47% |
| `COCCN1C(=O)CCC12CCCN(c1ncc(F)cn1)CC2` (centres unmarked) | 28.28% | 2.462% |
| `CNc1ccc(C2CN(c3nc(C)cc(C)n3)CCO2)nc1` (centres unmarked) | 51.49% | -4.062% |
| `CCC(=O)NCC(=O)NCC(C)(C)c1cccc(Br)c1` | - | -28.04% |
| `O=C(Cn1cc(-c2ccccc2)ncc1=O)Nc1nnc[nH]1` | -2.175% | -5.446% |
| `Cc1c(I)cccc1C(=O)NCc1ncc[nH]1` | -7.624% | -23.58% |
| `CC(=O)N1CCN(C(=O)CCCc2nnc(-c3ccccc3)o2)CC1` | - | -6.138% |
| `O=C(O)C(F)(F)F.O=C(O)C(F)(F)F.O=C(O)C(F)(F)F.[H][C@@]12CCN(c3ncccn3)[C@@]1([H])CCN2Cc1ccccn1` | -0.2033% | 4.144% |
| `Cc1noc(C)c1CN1CCN(Cc2nc(C3CC3)no2)CC1` | - | -6.642% |
| `O=C(O)C(F)(F)F.[H][C@@]12CN(Cc3ccncc3)CC[C@]1([H])CN(c1cnccn1)C2` | -7.851% | 4.963% |
| `[H][C@@]12CC(C)=CC[C@]1([H])CN(C(=O)c1ccc(-c3cc[nH]n3)cc1)C2` | -29.01% | 26.76% |
| `Cc1ccccc1C1(CNC(=O)c2ccc(S(C)(=O)=O)cc2)CC1` | - | -1.28% |
| `Cc1cc(C)cc(C2(C(=O)NC(C)Cn3ccnc3)CC2)c1` (centres unmarked) | -0.749% | -4.257% |
| `CN1CC(c2ccccc2)CC12CCN(C(=O)c1cncc(Cl)c1)CC2` (centres unmarked) | 19.59% | 3.663% |
| `O=C(O)C(F)(F)F.[H][C@]12CCC(=O)N(c3cnn(C)c3)[C@@]1([H])CCN2Cc1csc(C)n1` | -17.92% | -24.31% |
| `Cc1cccc(CC(=O)NS(=O)(=O)c2ccc(F)c(F)c2)c1` | 10.24% | -0.7692% |
| `CC(C)(NCC(=O)NCCC#N)c1ccc2c(c1)OCCO2` | 0.1962% | -2.758% |
| `CCN(CC1CC1)C(=O)NCc1nnc2n1CCC2` | 11.71% | -1.921% |
| `CCOCC1CN(Cc2cnn(C)c2)Cc2ncn(C)c21` (centres unmarked) | 21.37% | -18.28% |
| `Cc1nc(CN(Cc2ccccc2F)C2CCC2)no1` | 6.106% | 0.2497% |
| `COCc1ccc(C(=O)N2CCC(Oc3ccccc3OC)CC2)s1` | 16.93% | -24.32% |
| `Cc1cccc(C(=O)N(CC(=O)O)CC(C)C)c1` | 21.21% | 3.417% |
| `CCc1cccc(N2CCC(NC(=O)C3CCOCC3)CC2)c1` | -1.593% | -3.93% |
| `CC(C)N(C)Cc1nnc2n1CCCN(C(=O)c1ccco1)C2` | 12.59% | 25.21% |
| `CS(=O)(=O)N1CCC(c2nnc3ccc(C(=O)NC4CCC4)cn23)C1` (centres unmarked) | - | 18.04% |
| `COC(C)c1cccc(NCc2cccc(O)c2)c1` (centres unmarked) | 24.4% | 13.17% |
| `CCN1C(=O)CCCC12CCCN(C(=O)c1occc1C)C2` (centres unmarked) | 36.72% | -8.129% |
| `Cc1cccc(C2(CNC(=O)C(C)NC(N)=O)CCCC2)c1` (centres unmarked) | -14.72% | 4.929% |
| `O=C1NC2(CCN(CC(=O)N3CCOCC3)CC2)Nc2ccc(Br)cc21` | 2.605% | -3.09% |
| `[H][C@@]12C[C@H](C)O[C@@]1([H])CCN(C(=O)c1occc1C)C2` | -39.89% | -32.39% |
| `[H][C@]12CC[C@](C(=O)N3CCC(Cn4cc(CO)nn4)CC3)(C1)C(=C)C2(C)C` | -2.592% | 3.431% |
| `COCCN1CCC(NCc2c(C(C)C)nn(C)c2N(C)C)CC1` | 39.85% | -4.9% |
| `O=C(c1cnc(-c2cccnc2)nc1)N1CCSCC1` | -5.308% | -4.588% |
| `O=C(NCC1CC1)Nc1ccc(OCC(F)(F)F)nc1` | - | 25.33% |
| `O=C(O)C(F)(F)F.[H][C@@]12CCN(C(=O)C(C)C)CC[C@]1(C(=O)N1CCCC1)CCN2C` | -13.2% | 7.304% |
| `Cc1ccc(NC(=O)N2CC(C(=O)NC(C)C)C3(CCOCC3)C2)cc1` (centres unmarked) | -73.1% | -26.58% |
| `COc1ccc(NC(C)C(=O)N2CCN(Cc3ccccc3)CC2)cn1` (centres unmarked) | 12.24% | -3.428% |
| `COc1ccccc1NCc1cscn1.Cl` | 16.2% | -6.853% |
| `Oc1cc(-c2ccccn2)nc(C2CCN(Cc3ccncc3)CC2)n1` | -30.91% | -8.941% |
| `Cn1nccc1CCC(=O)N1CCCC(c2cnccn2)C1` (centres unmarked) | -50.38% | -21.71% |
| `CCC1CN(Cc2nnc(C3CC3)o2)CCC(=O)N1Cc1ccccc1` (centres unmarked) | 2.752% | -3.388% |
| `CSC(C)(C)CNC(=O)NCc1cccc(-n2cncn2)c1` | - | 13.1% |
| `COCCOc1cccc(CNC(=O)CN2CCN(C)CC2C)c1` (centres unmarked) | - | 11.95% |
| `CCOc1ncccc1CNC(=O)N1CCCC1c1cc(C)no1` (centres unmarked) | 19.13% | -3.324% |
| `Cc1n[nH]c(C2CN(Cc3nnc(C4CC4)n3C)CCO2)n1` (centres unmarked) | -27.65% | 12.43% |
| `CCN1CCC2(CC1)C(=O)Nc1ccc(C(=O)NC)cc12.O=C(O)C(F)(F)F` | - | -36.18% |
| `Cc1cc(N2CCCN(c3nc(C)nc(C)c3C)CC2)ccn1` | 10.68% | -25.79% |
| `Cc1nn(C)c(C)c1CCC(=O)N1CCCC1Cn1cccn1` (centres unmarked) | 18.57% | 0.1581% |

Repeated from the top, 8 entries:

{"compound": "CNC(=O)COc1nc(C(C)(C)C)no1", "Mtb growth Cornell": 7.64, "Mtb heat-shock": 2.96}
{"compound": "CCc1noc(CN(CCS(C)(=O)=O)C(C)(C)C)n1", "Mtb growth Cornell": -19.43, "Mtb heat-shock": 3.035}
{"compound": "COCCN1CCCC(c2cncc(Oc3ccccc3OC)n2)C1", "stereo": "centres unmarked", "Mtb growth Cornell": 6.598, "Mtb heat-shock": 15.88}
{"compound": "CN1CCN(Cc2cccnc2)C(=O)C12CCN(CC1CCOC1)CC2.O=C(O)C(F)(F)F.O=C(O)C(F)(F)F.O=C(O)C(F)(F)F", "stereo": "centres unmarked", "Mtb growth Cornell": -14.5, "Mtb heat-shock": 14.59}
{"compound": "COc1cccc(C2=CCN(CCN3CCOC3=O)CC2)c1", "Mtb heat-shock": -3.596}
{"compound": "Cc1ccsc1CNC(=O)NC(C)c1ccc2c(c1)CCC(=O)N2", "stereo": "centres unmarked", "Mtb heat-shock": 11.8}
{"compound": "Cn1cc(CN2CCC3(C2)CN(Cc2ccsc2)C3)cn1.O=C(O)C(F)(F)F.O=C(O)C(F)(F)F", "Mtb growth Cornell": -9.892, "Mtb heat-shock": -25.94}
{"compound": "CCc1cc(C(=O)N2CCCC(c3[nH]ncc3S(C)(=O)=O)C2)no1", "stereo": "centres unmarked", "Mtb heat-shock": -4.877}